# Measurements taken from US8415296B2 (Eli Lilly and Company, priority 2009, dated 2013).
# Experiment: general procedure: Fmoc solid-phase peptide synthesis; Fmoc-Rink amide polystyrene resin (Rapp Polymere), approximately 0.7 mmol/g; DIC/HOBt
# Conditions: conjugation step, based on the amount of starting peptide
substance,measurement,value
His-(D-Ser)-Gln-Gly-Thr-Phe-Thr-Ser-Asp-(1-Nal)-Ser-Lys-Tyr-Leu-Asp-Glu-Lys-Ala-Ala-Gln-Glu-Phe-Val-Gln-Trp-Leu-Leu-Asn-(Aib)-Ala-Arg-Asn-Arg-Asn-Asn-Ile-Ala-Cys(20 kDa PEG)-Cys(20 kDa PEG),conjugation yield,70 to 80%
